In the supplement of paper PMC10849652:
The other results are listed elsewhere or left out.

Protein sequences, listed by entry. Tags and fused reporters are not part of them. Lines headed by an entry give the natural chain unless they say otherwise; changes in a name come on top.
UniProt P67870, whole entry, looked up: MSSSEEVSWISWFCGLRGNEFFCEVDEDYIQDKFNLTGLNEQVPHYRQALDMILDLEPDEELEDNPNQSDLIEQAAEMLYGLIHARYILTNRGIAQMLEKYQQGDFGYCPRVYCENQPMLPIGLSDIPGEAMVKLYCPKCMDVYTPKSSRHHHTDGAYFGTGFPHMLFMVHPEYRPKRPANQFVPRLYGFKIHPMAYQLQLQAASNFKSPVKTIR
UniProt P12074, whole entry, looked up: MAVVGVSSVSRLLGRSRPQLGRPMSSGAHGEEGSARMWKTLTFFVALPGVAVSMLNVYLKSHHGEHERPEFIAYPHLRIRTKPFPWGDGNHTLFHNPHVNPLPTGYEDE
UniProt P55060: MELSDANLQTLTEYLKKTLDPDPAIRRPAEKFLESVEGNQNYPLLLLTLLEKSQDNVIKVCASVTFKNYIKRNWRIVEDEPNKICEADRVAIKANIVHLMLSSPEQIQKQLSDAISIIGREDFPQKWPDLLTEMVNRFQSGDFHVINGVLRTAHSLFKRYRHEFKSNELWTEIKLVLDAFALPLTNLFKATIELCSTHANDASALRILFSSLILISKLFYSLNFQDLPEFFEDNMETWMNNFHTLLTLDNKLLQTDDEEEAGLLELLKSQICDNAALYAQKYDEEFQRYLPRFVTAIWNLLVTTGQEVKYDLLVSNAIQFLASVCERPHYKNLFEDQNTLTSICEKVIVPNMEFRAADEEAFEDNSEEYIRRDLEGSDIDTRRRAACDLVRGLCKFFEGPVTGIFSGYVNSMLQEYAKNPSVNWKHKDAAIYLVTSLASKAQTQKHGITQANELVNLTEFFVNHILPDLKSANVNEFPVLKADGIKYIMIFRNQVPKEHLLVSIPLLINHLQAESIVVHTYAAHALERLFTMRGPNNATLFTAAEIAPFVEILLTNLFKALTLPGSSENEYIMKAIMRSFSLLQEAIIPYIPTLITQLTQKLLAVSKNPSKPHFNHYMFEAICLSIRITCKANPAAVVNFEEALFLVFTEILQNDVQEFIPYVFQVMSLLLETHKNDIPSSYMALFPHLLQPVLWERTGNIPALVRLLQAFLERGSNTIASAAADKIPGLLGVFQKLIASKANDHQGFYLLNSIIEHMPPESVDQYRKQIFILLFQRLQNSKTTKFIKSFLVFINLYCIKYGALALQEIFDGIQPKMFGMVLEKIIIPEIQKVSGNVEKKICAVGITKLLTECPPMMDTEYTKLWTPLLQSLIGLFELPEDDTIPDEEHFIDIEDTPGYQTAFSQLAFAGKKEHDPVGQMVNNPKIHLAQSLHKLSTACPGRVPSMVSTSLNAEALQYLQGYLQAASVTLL
UniProt Q8N668, whole entry, looked up: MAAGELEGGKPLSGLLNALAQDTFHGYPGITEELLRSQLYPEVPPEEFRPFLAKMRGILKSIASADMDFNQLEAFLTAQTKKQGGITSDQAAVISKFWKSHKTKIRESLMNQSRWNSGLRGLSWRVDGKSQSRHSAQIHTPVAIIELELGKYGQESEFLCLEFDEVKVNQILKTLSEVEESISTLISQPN
UniProt O75976: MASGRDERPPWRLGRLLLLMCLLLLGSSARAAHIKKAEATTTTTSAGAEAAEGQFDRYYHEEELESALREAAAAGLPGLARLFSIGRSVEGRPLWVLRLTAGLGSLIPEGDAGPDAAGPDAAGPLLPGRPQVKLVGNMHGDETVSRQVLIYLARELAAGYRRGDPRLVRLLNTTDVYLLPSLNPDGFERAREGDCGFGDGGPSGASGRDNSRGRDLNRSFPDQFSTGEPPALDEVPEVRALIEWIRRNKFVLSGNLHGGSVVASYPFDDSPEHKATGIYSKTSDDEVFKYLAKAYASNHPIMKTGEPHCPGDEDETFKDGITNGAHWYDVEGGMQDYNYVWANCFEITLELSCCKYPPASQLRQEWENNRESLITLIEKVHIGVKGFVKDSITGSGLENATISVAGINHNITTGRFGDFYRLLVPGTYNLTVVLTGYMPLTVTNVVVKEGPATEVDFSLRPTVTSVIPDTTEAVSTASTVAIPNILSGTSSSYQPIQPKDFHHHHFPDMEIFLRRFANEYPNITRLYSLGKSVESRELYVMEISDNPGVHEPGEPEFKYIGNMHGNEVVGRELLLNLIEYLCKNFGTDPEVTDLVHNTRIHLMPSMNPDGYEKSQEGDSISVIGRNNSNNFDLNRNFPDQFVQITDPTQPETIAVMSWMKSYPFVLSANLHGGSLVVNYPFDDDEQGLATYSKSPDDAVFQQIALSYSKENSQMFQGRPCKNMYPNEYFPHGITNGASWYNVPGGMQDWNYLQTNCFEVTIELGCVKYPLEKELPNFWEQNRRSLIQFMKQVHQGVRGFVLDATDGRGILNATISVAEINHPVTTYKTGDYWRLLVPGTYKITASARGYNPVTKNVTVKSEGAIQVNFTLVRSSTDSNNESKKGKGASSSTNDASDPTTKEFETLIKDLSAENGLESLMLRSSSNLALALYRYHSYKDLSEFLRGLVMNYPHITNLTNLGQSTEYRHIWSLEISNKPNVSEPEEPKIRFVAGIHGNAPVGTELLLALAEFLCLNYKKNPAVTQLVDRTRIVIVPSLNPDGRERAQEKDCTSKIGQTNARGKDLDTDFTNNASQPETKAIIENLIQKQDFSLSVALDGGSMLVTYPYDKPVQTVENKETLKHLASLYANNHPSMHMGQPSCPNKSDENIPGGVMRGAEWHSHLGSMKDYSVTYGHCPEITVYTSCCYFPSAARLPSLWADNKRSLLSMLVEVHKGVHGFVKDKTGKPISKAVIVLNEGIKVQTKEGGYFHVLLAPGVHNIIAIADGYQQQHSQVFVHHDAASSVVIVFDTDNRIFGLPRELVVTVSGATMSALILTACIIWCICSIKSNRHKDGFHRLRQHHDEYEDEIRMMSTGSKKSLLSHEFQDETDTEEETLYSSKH
UniProt Q6UUV9: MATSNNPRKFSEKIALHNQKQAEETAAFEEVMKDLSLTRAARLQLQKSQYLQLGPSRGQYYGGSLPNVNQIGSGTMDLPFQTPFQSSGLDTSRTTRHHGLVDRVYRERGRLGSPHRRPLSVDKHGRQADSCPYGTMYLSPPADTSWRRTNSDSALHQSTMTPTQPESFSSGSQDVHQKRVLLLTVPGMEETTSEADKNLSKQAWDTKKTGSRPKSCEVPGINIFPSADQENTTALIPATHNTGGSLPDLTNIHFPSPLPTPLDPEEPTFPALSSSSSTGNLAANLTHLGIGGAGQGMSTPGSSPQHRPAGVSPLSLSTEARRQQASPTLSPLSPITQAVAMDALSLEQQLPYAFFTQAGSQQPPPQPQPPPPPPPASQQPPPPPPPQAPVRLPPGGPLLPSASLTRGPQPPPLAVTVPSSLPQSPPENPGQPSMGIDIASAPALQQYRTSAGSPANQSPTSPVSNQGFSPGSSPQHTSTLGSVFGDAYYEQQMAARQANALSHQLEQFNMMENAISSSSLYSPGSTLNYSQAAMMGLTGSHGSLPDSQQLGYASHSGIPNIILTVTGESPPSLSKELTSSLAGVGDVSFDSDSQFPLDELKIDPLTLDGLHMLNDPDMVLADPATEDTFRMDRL
UniProt P50416: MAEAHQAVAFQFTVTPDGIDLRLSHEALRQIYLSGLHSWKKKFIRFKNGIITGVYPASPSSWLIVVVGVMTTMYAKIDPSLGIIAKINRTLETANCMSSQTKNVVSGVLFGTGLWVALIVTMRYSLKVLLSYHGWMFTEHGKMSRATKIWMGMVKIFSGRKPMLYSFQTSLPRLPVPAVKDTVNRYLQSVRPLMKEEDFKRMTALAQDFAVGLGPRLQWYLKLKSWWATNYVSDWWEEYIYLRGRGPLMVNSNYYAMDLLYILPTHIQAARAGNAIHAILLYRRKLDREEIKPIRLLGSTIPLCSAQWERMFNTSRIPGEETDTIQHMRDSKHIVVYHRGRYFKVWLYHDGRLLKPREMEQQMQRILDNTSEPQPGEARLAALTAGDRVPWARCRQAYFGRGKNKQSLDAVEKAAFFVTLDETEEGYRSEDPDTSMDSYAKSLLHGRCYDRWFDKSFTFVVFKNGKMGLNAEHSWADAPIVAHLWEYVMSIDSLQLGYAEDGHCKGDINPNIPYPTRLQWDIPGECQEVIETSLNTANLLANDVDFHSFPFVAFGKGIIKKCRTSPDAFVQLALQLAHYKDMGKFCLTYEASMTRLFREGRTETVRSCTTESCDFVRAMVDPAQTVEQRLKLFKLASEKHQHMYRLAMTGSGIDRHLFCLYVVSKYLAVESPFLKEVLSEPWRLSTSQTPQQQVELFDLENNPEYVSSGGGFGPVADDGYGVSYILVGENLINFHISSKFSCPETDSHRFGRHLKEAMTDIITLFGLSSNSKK
UniProt Q5TA50: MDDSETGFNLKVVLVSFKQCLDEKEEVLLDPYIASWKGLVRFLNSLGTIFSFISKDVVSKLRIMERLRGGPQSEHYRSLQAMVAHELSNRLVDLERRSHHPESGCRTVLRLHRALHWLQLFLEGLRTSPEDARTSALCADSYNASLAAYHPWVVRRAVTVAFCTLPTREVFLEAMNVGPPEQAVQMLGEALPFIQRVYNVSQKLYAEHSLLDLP
UniProt P10606, whole entry, looked up: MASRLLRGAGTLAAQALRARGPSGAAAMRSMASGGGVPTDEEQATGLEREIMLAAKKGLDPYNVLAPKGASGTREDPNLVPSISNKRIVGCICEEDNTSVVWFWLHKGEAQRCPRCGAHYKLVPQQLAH
UniProt P15954, whole entry, looked up: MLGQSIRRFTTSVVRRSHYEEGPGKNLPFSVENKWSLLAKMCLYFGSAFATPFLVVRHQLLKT
UniProt P52943: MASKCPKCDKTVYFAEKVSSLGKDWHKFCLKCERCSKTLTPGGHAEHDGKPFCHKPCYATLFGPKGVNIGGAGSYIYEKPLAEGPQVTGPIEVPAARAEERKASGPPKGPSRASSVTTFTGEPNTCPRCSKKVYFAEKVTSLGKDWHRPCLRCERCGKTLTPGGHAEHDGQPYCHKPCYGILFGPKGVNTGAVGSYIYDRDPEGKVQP
UniProt Q9UKF6: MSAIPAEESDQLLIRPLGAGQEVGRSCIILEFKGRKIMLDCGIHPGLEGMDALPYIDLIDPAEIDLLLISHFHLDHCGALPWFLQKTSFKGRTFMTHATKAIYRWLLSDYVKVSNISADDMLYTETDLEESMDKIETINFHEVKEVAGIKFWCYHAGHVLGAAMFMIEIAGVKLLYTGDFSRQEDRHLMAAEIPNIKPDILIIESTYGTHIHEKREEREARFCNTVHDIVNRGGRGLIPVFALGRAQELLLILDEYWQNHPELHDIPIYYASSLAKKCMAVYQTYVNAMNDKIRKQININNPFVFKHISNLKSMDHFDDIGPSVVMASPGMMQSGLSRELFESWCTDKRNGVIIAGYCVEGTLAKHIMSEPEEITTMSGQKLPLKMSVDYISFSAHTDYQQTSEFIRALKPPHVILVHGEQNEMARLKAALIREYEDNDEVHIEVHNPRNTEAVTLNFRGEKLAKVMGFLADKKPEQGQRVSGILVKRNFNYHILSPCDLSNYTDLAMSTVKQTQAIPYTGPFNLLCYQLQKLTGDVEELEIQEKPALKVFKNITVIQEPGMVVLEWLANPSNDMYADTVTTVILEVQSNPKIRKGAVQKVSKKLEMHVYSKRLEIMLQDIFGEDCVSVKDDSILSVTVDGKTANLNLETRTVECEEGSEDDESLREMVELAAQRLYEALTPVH
UniProt Q7KZN9: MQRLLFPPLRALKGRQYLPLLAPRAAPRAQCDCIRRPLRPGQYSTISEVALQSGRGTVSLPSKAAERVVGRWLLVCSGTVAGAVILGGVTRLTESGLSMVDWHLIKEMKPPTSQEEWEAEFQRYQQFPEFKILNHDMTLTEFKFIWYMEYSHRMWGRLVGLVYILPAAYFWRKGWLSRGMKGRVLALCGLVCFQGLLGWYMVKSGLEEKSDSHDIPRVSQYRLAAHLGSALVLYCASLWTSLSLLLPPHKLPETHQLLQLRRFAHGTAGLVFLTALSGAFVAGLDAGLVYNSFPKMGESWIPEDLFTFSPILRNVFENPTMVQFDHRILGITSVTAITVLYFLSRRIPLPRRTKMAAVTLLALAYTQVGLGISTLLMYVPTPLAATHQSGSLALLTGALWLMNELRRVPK
UniProt Q96I36: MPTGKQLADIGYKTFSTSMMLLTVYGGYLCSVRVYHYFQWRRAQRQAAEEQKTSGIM
UniProt P46108: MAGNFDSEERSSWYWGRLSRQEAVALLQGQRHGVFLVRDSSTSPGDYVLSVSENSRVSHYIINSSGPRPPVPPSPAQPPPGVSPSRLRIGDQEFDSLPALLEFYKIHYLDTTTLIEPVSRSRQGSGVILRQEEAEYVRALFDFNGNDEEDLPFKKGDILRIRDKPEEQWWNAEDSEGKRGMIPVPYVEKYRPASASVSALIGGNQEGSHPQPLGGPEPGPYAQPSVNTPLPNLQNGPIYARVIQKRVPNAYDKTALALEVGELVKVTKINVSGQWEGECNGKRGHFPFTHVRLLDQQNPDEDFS

Assays:
Experiment in all cases: log2 fold change, soluble protein after heating vs DMSO (PISA); higher = thermal stabilisation; K562 cells, 10 uM, 30 min; active = over 0.2 and 3.5 SD of the protein, either way, in both replicates (recomputed)
[1] = compound: CS(=O)(=O)c1ccc(-c2cnc(N)c(C(=O)Nc3ccccc3)n2)cc1
Procedure, shortened: (§1)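 K562 cells at 2×10^6 cells/mL were given 10 μM compound for 30 min. Aliquots then went through 3 min of heating across 48°C-58°C, were pooled, and were extracted in PBS with 0.5% NP-40 at 4°C, and the supernatant after 21,000xg for 90 min was quantified by TMTpro 16plex LC-MS/MS with channel sums equalised. Thermal stability relative to control samples, from duplicates, is given as log2 fold change.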

[2] = compound: C[C@@H](Oc1cc(-c2cnn(C3CCNCC3)c2)cnc1N)c1c(Cl)ccc(F)c1Cl [crizotinib]
Procedure, shortened: as §1

[3] = compound: C[C@H](C1=CC=C(C=C1)C(=O)NC2=C3C=CNC3=NC=C2)N
Procedure, shortened: as §1

[4] = compound: C[C@H](Nc1ncnc2nc[nH]c12)c1cc2cccc(Cl)c2c(=O)n1-c1ccccc1 [duvelisib]
Procedure, shortened: as §1

[5] = compound: Cc1cc(Nc2cc(CN3CCOCC3)c3nc(C)c(Cc4ccc(Cl)cc4F)n3n2)n[nH]1 [gandotinib]
Procedure, shortened: as §1

[6] = compound: Cc1cc(Nc2cc(N3CCN(C)CC3)nc(Sc3ccc(NC(=O)C4CC4)cc3)n2)n[nH]1 [tozasertib]
Procedure, shortened: as §1

[7] = compound: Cc1cc(SCc2sc(-c3ccc(C(F)(F)F)cc3)nc2C)ccc1OCC(=O)O
Procedure, shortened: as §1

[8] = compound: Cc1ccc(-n2nc(C(C)(C)C)cc2NC(=O)Nc2ccc(OCCN3CCOCC3)c3ccccc23)cc1 [doramapimod]
Procedure, shortened: as §1

[9] = compound: Cc1ccc(C(=O)N(CCCN)[C@@H](c2nc3cc(Cl)ccc3c(=O)n2Cc2ccccc2)C(C)C)cc1 [ispinesib]
Procedure, shortened: as §1

[10] = compound: Cc1ccc(NC(=O)c2ccc(CN3CC[C@H](N(C)C)C3)c(C(F)(F)F)c2)cc1Nc1nccc(-c2cncnc2)n1 [bafetinib]
Procedure, shortened: as §1

[11] = compound: Cc1cccc(CC(=O)N2CCc3c2ccc(-c2cn(C)c4ncnc(N)c24)c3F)n1
Procedure, shortened: as §1

[12] = compound: Cc1nc(Nc2ncc(C(=O)Nc3c(C)cccc3Cl)s2)cc(N2CCN(CCO)CC2)n1 [dasatinib]
Procedure, shortened: as §1

[13] = compound: Cn1cc(-c2ccc3c(c2)CCN3C(=O)Cc2cccc(C(F)(F)F)c2)c2c(N)ncnc21
Procedure, shortened: as §1

[14] = compound: Cn1cc(-c2ccc3nnc(C(F)(F)c4ccc5ncccc5c4)n3n2)cn1
Procedure, shortened: as §1

[15] = compound: Cn1cncc1[C@@](N)(c1ccc(Cl)cc1)c1ccc2c(c1)c(-c1cccc(Cl)c1)cc(=O)n2C [tipifarnib]
Procedure, shortened: as §1

[16] = compound: FC(F)(F)c1ccc(/C=C/c2nc(COc3ccc(CCCCn4ccnn4)cc3)co2)cc1 [mubritinib]
Procedure, shortened: as §1

[17] = compound: C[C@@H]1COCCN1C2=NC(=NC(=C2)C3(CC3)S(=O)(=O)C)C4=C5C=CNC5=CC=C4
Procedure, shortened: as §1

[18] = compound: Cc1cn(-c2cc(NC(=O)c3ccc(C)c(Nc4nccc(-c5cccnc5)n4)c3)cc(C(F)(F)F)c2)cn1 [nilotinib]
Procedure, shortened: as §1

[19] = compound: Cc1nc(Nc2n[nH]c3c2CN(C(=O)N[C@H](CN(C)C)c2ccccc2)C3(C)C)c2sccc2n1
Procedure, shortened: as §1

[20] = compound: Cc1ncc(-c2ccnc(Nc3ccc(S(C)(=O)=O)cc3)n2)n1C(C)C
Procedure, shortened: as §1

Target | log2 fold change [1] | log2 fold change [2] | log2 fold change [3] | log2 fold change [4] | log2 fold change [5] | log2 fold change [6] | log2 fold change [7] | log2 fold change [8] | log2 fold change [9] | log2 fold change [10] | log2 fold change [11] | log2 fold change [12] | log2 fold change [13] | log2 fold change [14] | log2 fold change [15] | log2 fold change [16] | log2 fold change [17] | log2 fold change [18] | log2 fold change [19] | log2 fold change [20]
COMP (UniProt P49747) | inactive: -0.093 | inactive: 0.137 | inactive: 0.17 | inactive: -0.042 | inactive: -0.191 | inactive: 0.041 | inactive: -0.28 | inactive: 0 | inactive: 0.033 | inactive: -0.092 | inactive: 0.004 | inactive: 0.039 | inactive: 0.219 | inactive: -0.081 | inactive: 0.075 | inactive: -0.239 | – | – | – | –
CSNK2B (UniProt P67870) | inactive: 0.05 | inactive: -0.037 | inactive: -0.128 | – | inactive: -0.027 | – | inactive: -0.005 | inactive: -0.002 | inactive: 0.016 | inactive: 0.036 | inactive: 0.014 | inactive: 0.015 | inactive: 0.038 | inactive: -0.01 | inactive: -0.042 | inactive: -0.017 | inactive: 0.049 | inactive: 0.052 | inactive: 0.018 | inactive: -0.05
CPEB4 (UniProt Q17RY0) | inactive: 0.033 | inactive: -0.145 | inactive: 0.068 | inactive: 0.01 | inactive: 0.278 | inactive: -0.093 | inactive: -0.019 | inactive: 0.057 | inactive: -0.132 | inactive: -0.047 | inactive: -0.118 | inactive: -0.006 | inactive: 0.043 | inactive: -0.015 | inactive: -0.04 | inactive: 0.079 | – | – | – | –
COX6A1 (UniProt P12074) | inactive: 0.108 | inactive: 0.132 | inactive: -0.082 | inactive: 0.119 | – | inactive: -0.059 | inactive: -0.024 | inactive: 0.076 | inactive: 0.096 | inactive: -0.142 | – | inactive: 0.056 | inactive: 0.041 | inactive: 0.099 | inactive: 0.158 | inactive: 0.034 | – | inactive: 0.232 | inactive: -0.039 | inactive: -0.013
CSE1L (UniProt P55060) | inactive: 0.008 | inactive: -0.063 | inactive: -0.067 | – | inactive: -0.174 | – | inactive: 0.024 | inactive: -0.027 | inactive: -0.003 | inactive: -0.041 | inactive: 0.039 | inactive: -0.08 | inactive: -0.005 | inactive: 0.007 | inactive: -0.101 | inactive: 0.068 | inactive: 0.083 | inactive: -0.066 | inactive: -0.026 | inactive: 0.012
COMMD1 (UniProt Q8N668) | inactive: -0.108 | inactive: -0.022 | – | – | active: 0.42 | – | – | inactive: 0.009 | inactive: -0.112 | inactive: -0.162 | inactive: -0.085 | – | – | inactive: -0.087 | inactive: -0.016 | inactive: -0.069 | inactive: -0.092 | inactive: 0.009 | inactive: -0.179 | inactive: -0.057
CPD (UniProt O75976) | inactive: 0 | active: -0.294 | inactive: 0.019 | – | inactive: 0.033 | – | inactive: -0.01 | inactive: 0.028 | inactive: -0.174 | inactive: -0.07 | inactive: 0.01 | inactive: 0.026 | inactive: -0.029 | inactive: 0.026 | inactive: 0.055 | inactive: -0.009 | inactive: 0.002 | inactive: -0.007 | inactive: -0.033 | inactive: -0.029
CRTC1 isoform 2 (UniProt Q6UUV9) | inactive: -0.068 | inactive: -0.016 | – | – | inactive: 0.008 | – | inactive: -0.076 | inactive: 0.005 | inactive: -0.11 | inactive: 0.021 | inactive: -0.093 | inactive: -0.034 | – | inactive: -0.079 | inactive: -0.267 | – | inactive: 0.192 | – | – | –
CPT1A (UniProt P50416) | inactive: 0.043 | active: 0.546 | inactive: 0.047 | – | inactive: 0.211 | – | inactive: 0.079 | inactive: 0.012 | inactive: 0.322 | inactive: 0.171 | inactive: 0.006 | inactive: -0.042 | inactive: -0.024 | inactive: -0.036 | inactive: 0.187 | inactive: -0.05 | inactive: 0.02 | inactive: 0.058 | inactive: 0.021 | inactive: -0.107
CPSF7 isoform 3 (UniProt Q8N684) | inactive: -0.016 | inactive: 0.013 | inactive: -0.05 | – | inactive: -0.004 | – | inactive: 0.018 | inactive: -0.014 | inactive: 0.09 | inactive: 0.07 | inactive: -0.107 | inactive: 0.012 | inactive: 0.003 | inactive: -0.027 | inactive: -0.048 | inactive: -0.048 | inactive: 0.026 | inactive: 0.028 | active: -0.552 | inactive: 0.044
COPS4 (UniProt Q9BT78) | inactive: -0.01 | inactive: 0.112 | inactive: -0.064 | – | inactive: 0.022 | – | inactive: 0.002 | inactive: -0.014 | inactive: 0.086 | inactive: 0.003 | inactive: 0 | inactive: -0.023 | inactive: 0.031 | inactive: 0.003 | inactive: -0.012 | inactive: 0.031 | inactive: 0.064 | inactive: 0 | inactive: -0.01 | inactive: 0.007
CPTP (UniProt Q5TA50) | inactive: 0.167 | inactive: -0.093 | – | – | – | – | – | inactive: 0 | inactive: 0.203 | – | – | – | – | inactive: -0.01 | – | inactive: 0.082 | – | – | – | –
COX5B (UniProt P10606) | inactive: -0.07 | inactive: 0.186 | inactive: -0.169 | – | inactive: 0.218 | – | inactive: -0.001 | inactive: 0.022 | inactive: 0.265 | inactive: -0.032 | inactive: 0.013 | inactive: 0.105 | inactive: 0.134 | inactive: 0.221 | inactive: -0.108 | inactive: 0.024 | inactive: 0.081 | inactive: 0.026 | inactive: 0.011 | inactive: -0.043
COX7C (UniProt P15954) | inactive: 0.025 | inactive: 0.147 | – | – | inactive: 0.043 | – | inactive: -0.114 | inactive: -0.072 | inactive: -0.096 | inactive: -0.066 | inactive: -0.077 | inactive: 0.073 | – | inactive: 0.366 | inactive: 0.105 | inactive: 0.112 | inactive: 0.028 | inactive: 0.148 | inactive: -0.041 | inactive: -0.158
CRIP2 isoform 2 (UniProt P52943) | inactive: -0.014 | inactive: 0.011 | inactive: 0.058 | – | – | inactive: -0.095 | – | inactive: -0.255 | – | inactive: 0.003 | – | – | inactive: -0.026 | – | inactive: -0.01 | – | inactive: -0.101 | inactive: -0.051 | inactive: 0.037 | inactive: 0.047
CPSF3 (UniProt Q9UKF6) | inactive: -0.004 | inactive: 0.01 | inactive: -0.006 | – | inactive: -0.052 | – | inactive: 0.031 | inactive: 0 | inactive: -0.003 | inactive: -0.052 | inactive: 0.041 | inactive: -0.082 | inactive: -0.071 | inactive: -0.023 | inactive: -0.027 | inactive: 0.02 | inactive: 0.013 | inactive: -0.006 | inactive: -0.073 | inactive: -0.023
COX15 (UniProt Q7KZN9) | inactive: -0.008 | inactive: -0.015 | inactive: 0.006 | – | inactive: -0.07 | – | inactive: -0.033 | inactive: -0.023 | inactive: -0.016 | inactive: 0.09 | inactive: -0.02 | inactive: 0.078 | inactive: 0.008 | inactive: -0.023 | inactive: 0.046 | inactive: 0.038 | inactive: 0.041 | inactive: -0.013 | inactive: 0.02 | inactive: -0.034
COX14 (UniProt Q96I36) | inactive: -0.055 | inactive: -0.006 | inactive: -0.118 | – | inactive: -0.291 | – | – | inactive: 0.022 | – | inactive: 0.064 | inactive: -0.177 | – | inactive: -0.064 | – | inactive: -0.043 | – | inactive: 0.119 | inactive: 0.081 | inactive: -0.057 | inactive: -0.106
CRK (UniProt P46108) | inactive: 0.043 | active: -1.02 | inactive: -0.064 | – | inactive: -0.096 | – | inactive: 0.058 | inactive: 0.01 | inactive: -0.004 | active: -0.586 | inactive: -0.02 | active: -0.883 | inactive: -0.007 | inactive: 0.03 | inactive: 0.026 | inactive: 0.075 | inactive: 0.008 | active: -0.826 | inactive: -0.136 | inactive: 0.036
COL6A1 (UniProt P12109) | inactive: -0.051 | inactive: 0.085 | inactive: 0.103 | inactive: -0.141 | inactive: 0.124 | inactive: 0.066 | inactive: -0.085 | inactive: 0.047 | inactive: -0.098 | inactive: -0.023 | inactive: -0.249 | inactive: 0.029 | inactive: 0.151 | inactive: -0.166 | inactive: 0.172 | inactive: -0.213 | – | inactive: -0.212 | inactive: -0.423 | inactive: 0.178

An excerpt from above, limited to log2 fold change [15], log2 fold change [16] and log2 fold change [9]:
Target | log2 fold change [15] | log2 fold change [16] | log2 fold change [9]
COX14 (UniProt Q96I36) | inactive: -0.043 | – | –
CRK (UniProt P46108) | inactive: 0.026 | inactive: 0.075 | inactive: -0.004
